Measured values: patent US20210047410A1
Results are given in words; binding and its absence hold for the method and conditions named. Some results given as binding are weak or reduced against the parent protein; the word gives no strength.

Assays:
[1] = target: WT (M1) hCTLA-4-Fc (human); experiment: ELISA; hCTLA-4-Fc protein coated at 1 µg/ml, streptavidin-HRP
[2] = target: WT (M1) hCTLA-4-Fc (human); experiment: ELISA: Fc proteins coated at 1 µg/ml, biotinylated hB7-1-Fc varied, streptavidin-HRP

binding [1]: binds
binding [2]: binds
Substance: human B7-1-Fc (from UniProt P33681 35-242) (Fc fusion)
